# According to the supplement of paper PMC3334620:
# Whole data set: some 33,000 sequences, median “E-score (-0.5 to 0.5)” near -0.0059, cut for the highest 2% near 0.26. Some of the results follow.
# Biological target: T1, Cin5 (UniProt P40917)
# T1 sequence: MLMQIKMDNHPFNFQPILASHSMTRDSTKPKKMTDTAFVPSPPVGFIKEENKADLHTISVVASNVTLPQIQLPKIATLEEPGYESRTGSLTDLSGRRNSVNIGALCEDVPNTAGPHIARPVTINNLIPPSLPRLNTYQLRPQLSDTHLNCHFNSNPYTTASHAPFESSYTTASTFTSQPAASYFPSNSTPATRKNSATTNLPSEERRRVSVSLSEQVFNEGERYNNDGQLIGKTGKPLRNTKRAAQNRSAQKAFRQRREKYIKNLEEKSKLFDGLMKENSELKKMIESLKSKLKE
# Assay: PBM E-score (8-mer binding enrichment) (E-score (-0.5 to 0.5)); higher = stronger / more preferred TF binding
# Details: protein concentration: 100 nM; construct: GST-full length
# Procedure, shortened: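 The E-score, a modified Wilcoxon-Mann-Whitney statistic, was computed by the Universal PBM Analysis Suite for every ungapped eight-base word pooled with its reverse complement. Scans behind it were normalised with masliner after bound GST-tagged yeast transcription factors were detected with fluorescent anti-GST. The proteins, at about 100-200 nM, had been applied to universal all-10-mer Agilent arrays made double-stranded by primer extension.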
row,Sequence,PBM E-score
1,CGCCACAA,0.057
2,TCGCCACA,0.0301
3,CGTGATTC,-0.0445
4,ACGGGGGC,-0.445
5,CCTTTGAA,-0.0763
6,CATAGTAA,0.279
7,CTGTGGCA,-0.117
8,TAGATCCA,-0.00386
9,GGGGCCGA,-0.241
10,ACTATCAC,-0.0106
11,AAGGTACT,0.0255
12,AAGAAGAC,-0.00466
13,AACCCACA,0.0403
14,CCCGATCA,-0.217
15,CAGAATTC,0.0317
16,CACAGTGG,-0.111
17,GGACCGAC,-0.0152
18,GGGATAGA,-0.165
19,GATGTGCC,-0.144
20,GACCTGGC,-0.0791
21,AACATGGA,0.0225
22,AGTAACGG,0.0103

# 2 records picked at random from those above, as already listed:
row,Sequence,PBM E-score
3,CGTGATTC,-0.0445
1,CGCCACAA,0.057

# Further entries follow.

row,Sequence,PBM E-score
1,GGGATCAC,-0.129
2,CGGCCCTC,-0.346
3,AGGAGTAT,0.00924
4,CCGATAGC,-0.0986
5,AGATAGCC,-0.189
6,CGCAGACC,-0.296
7,ATCTTCTG,0.0442
8,CCCGACGC,-0.196
9,TACCCATA,0.0256
10,GCTAGCAC,-0.125
11,GGGTGTGA,-0.168
12,CCTCCGCA,-0.235
13,CATCCATA,0.0577
14,CACAGGAA,0.0493
15,GCATTGAC,-0.131
16,ACAATCGG,-0.0313
17,AACACGAC,-0.091
18,GGTGTTAC,-0.0664
19,CCACCTCA,0.0455
20,ACTTAGCA,-0.158
21,AATCTCAA,0.184
22,GAGCTTCC,0.148

row,Sequence,PBM E-score
1,GCTCCTCC,-0.323
2,CACCGCAA,0.0561
3,AGACAAAA,-0.0833
4,ATGCTGGA,-0.0155
5,GCAGCGGA,0.142
6,AAGTGACA,0.156
7,GCACTCGC,-0.105
8,ACTTTTTC,-0.0317
9,CAGCCTCA,-0.115
10,AAAATAGC,-0.0291
11,AGTAACTG,0.0066
12,ACGGACAA,0.22
13,AGCAAACT,0.107
14,CGTGTTGC,-0.119
15,CGATCGCG,0.156
16,CGGTTCTC,-0.217
17,CCGCTACG,-0.274
18,ACCTGTTG,-0.0113
19,GAGGCACC,-0.259
20,CAAGGGGC,-0.0283
21,AAGACGCG,-0.0284
22,ACACAATG,0.159

row,Sequence,PBM E-score
1,ACATCCGA,-0.0426
2,TAATGACA,0.237
3,CACTTATC,0.0905
4,ACTGGTAG,-0.045
5,CAATTTAA,0.159
6,CTGGGCAA,-0.00747
7,ACGACTTC,-0.12
8,GGCGTACA,-0.182
9,ATATTCAC,0.196
10,CCACGTCC,-0.185
11,TCAGTTAA,0.0587
12,ACTGCATG,0.0819
13,TTCAAAAA,0.0429
14,TAAGCTTA,0.372
15,CCATCTGA,-0.0639
16,CAAGCAAA,0.0691
17,CACACATC,-0.103
18,GTCGGACA,-0.0736
19,TGGAGACA,-0.0161
20,AGGATATA,0.152
21,GCTTTAGA,-0.15
22,CCAGTGTA,0.119

row,Sequence,PBM E-score
1,ACAGCATG,-0.0234
2,AATAGCCT,-0.0259
3,GGCGACCA,-0.255
4,GTAGAACA,-0.165
5,GGCTGTTA,-0.0126
6,AACTAATT,0.181
7,CGTCGTTA,-0.102
8,GCTTTCTA,0.164
9,CACACAAG,0.0852
10,CAATGTTA,0.0439
11,CGGGACAC,-0.0433
12,AAAACTGG,-0.043
13,ACCTCGCC,-0.179
14,ACAGCACT,-0.0028
15,CGAAGCAC,0.0504
16,TATACATA,0.236
17,ATGGTGAC,-0.147
18,AGGGACTA,0.0328
19,CAGAACTC,0.0143
20,AATGATGG,0.228
21,AATTCCCG,0.0857
22,CAAGAATG,0.011

# Looked up above.
# Value of GGCTGTTA under PBM E-score: -0.0126
# Value of AGGGACTA under PBM E-score: 0.0328
# Value of AACTAATT under PBM E-score: 0.181
# Value of ATGGTGAC under PBM E-score: -0.147
